In PMC2391170:
No constants are given. Whether binding was seen depends on the method and setting. Some binding calls cover weakened binding; strength is not graded here.

T1: AtCPSF30 (Arabidopsis) (UniProt A9LNK9)
T1 sequence: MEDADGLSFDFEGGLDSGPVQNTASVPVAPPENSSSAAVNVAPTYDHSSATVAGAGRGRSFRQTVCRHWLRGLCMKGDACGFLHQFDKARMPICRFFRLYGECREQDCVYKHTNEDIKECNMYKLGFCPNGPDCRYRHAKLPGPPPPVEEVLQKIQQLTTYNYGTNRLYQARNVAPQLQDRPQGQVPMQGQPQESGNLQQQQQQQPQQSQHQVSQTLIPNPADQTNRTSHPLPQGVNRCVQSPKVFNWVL

T2: AtFIPS5 (Arabidopsis) (UniProt F4KDH9)
T2 sequence: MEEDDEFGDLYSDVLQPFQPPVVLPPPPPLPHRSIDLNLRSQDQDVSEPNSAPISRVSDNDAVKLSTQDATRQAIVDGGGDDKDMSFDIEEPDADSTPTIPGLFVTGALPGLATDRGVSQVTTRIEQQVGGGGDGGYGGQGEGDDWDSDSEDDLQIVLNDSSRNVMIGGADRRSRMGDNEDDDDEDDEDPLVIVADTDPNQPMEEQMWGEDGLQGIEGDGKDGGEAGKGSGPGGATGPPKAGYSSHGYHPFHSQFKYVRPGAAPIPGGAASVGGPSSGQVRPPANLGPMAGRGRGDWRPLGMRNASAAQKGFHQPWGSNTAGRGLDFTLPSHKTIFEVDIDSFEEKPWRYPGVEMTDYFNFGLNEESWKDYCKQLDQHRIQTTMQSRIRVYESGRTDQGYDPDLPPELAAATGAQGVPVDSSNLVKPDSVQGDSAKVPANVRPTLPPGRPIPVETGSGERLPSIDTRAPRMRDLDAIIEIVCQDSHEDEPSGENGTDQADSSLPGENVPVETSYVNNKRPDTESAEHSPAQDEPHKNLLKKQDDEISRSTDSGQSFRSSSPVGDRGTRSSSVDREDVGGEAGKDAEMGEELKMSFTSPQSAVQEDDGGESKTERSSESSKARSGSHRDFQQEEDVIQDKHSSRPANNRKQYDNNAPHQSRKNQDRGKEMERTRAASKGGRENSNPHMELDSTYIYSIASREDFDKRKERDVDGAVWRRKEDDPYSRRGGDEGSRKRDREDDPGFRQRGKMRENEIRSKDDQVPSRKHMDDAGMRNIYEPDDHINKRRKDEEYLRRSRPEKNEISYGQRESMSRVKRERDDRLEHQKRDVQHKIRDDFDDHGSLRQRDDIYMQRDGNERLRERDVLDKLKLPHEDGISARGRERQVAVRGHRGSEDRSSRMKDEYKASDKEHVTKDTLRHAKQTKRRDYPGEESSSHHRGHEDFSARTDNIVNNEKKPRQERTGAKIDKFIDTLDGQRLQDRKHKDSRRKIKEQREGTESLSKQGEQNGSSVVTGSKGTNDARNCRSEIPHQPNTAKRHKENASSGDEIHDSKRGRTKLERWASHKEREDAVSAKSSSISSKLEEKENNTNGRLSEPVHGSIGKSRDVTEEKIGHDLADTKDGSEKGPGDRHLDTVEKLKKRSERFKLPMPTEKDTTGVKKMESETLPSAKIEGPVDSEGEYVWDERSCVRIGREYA

T3: AtPCFS1 (Arabidopsis) (UniProt Q9C710)
T3 sequence: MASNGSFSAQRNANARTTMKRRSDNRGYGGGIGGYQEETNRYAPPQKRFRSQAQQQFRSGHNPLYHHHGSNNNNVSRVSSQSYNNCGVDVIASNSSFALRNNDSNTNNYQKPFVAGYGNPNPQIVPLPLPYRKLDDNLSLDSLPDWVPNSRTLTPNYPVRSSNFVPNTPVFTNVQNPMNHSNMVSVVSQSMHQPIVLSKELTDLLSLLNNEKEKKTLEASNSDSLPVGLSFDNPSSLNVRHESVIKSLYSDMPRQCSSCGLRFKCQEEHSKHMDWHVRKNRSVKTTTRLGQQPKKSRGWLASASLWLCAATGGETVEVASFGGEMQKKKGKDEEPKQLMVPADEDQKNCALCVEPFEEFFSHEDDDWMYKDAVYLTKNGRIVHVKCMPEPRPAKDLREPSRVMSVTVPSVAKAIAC

T4: AtPCFS5 (Arabidopsis) (UniProt Q9FIX8)
T4 sequence: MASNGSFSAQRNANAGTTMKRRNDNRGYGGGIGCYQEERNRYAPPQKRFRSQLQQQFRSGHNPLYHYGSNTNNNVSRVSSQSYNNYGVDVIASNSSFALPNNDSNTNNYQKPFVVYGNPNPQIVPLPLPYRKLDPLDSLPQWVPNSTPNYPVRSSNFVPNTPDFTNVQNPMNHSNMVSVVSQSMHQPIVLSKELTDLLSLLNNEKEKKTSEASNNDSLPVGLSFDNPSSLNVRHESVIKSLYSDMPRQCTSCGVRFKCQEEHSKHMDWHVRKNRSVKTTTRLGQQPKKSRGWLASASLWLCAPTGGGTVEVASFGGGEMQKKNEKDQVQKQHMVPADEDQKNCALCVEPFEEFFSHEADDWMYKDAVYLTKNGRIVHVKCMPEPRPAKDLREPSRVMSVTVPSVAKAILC


Assays:
Assay in all cases: two-hybrid; AD (pGAD-C(1)) and BD (pGBD-C(1)) fusions in yeast PJ69-4; dual transformants tested on media lacking leucine, tryptophan and adenine; positive if all tested colonies (4 to 10) grew; both combinations of clones tested whenever possible
AtCPSF30 (Arabidopsis) = target: T1, AtCPSF30 (Arabidopsis)
AtFIPS5 (Arabidopsis) = target: T2, AtFIPS5 (Arabidopsis)
AtPCFS1 (Arabidopsis) = target: T3, AtPCFS1 (Arabidopsis)
AtPCFS5 (Arabidopsis) = target: T4, AtPCFS5 (Arabidopsis)

Row | binding (AtCPSF30 (Arabidopsis)) | binding (AtFIPS5 (Arabidopsis)) | binding (AtPCFS1 (Arabidopsis)) | binding (AtPCFS5 (Arabidopsis)) | Binder
1 | no binding | binds | no binding | no binding | AtCFIS1 (protein, UniProt Q94AF0 1-222) MGEEARALDMEEISDNTTRRNDVVHDLMVDLYPLSSYYFGSKEALRVKDEIISDRVIRLKSNYAAHGLRTCVEAVLLVELFKHPHVLLLQYRNSIFKLPGGRLRPGESDIEGLKRKLASKLSVNENVGVSGYEVGECIGMWWRPNFETLMYPFLPPNIKHPKECTKLFLVRLPVHQQFVVPKNFKLLAVPLCQLHENEKTYGPIMSQIPKLLSKFSFNMMEI
2 | binds | binds | binds | binds | AtCPSF30 (protein, UniProt A9LNK9-2 1-250) MEDADGLSFDFEGGLDSGPVQNTASVPVAPPENSSSAAVNVAPTYDHSSATVAGAGRGRSFRQTVCRHWLRGLCMKGDACGFLHQFDKARMPICRFFRLYGECREQDCVYKHTNEDIKECNMYKLGFCPNGPDCRYRHAKLPGPPPPVEEVLQKIQQLTTYNYGTNRLYQARNVAPQLQDRPQGQVPMQGQPQESGNLQQQQQQQPQQSQHQVSQTLIPNPADQTNRTSHPLPQGVNRCVQSPKVFNWVL
3 | binds | binds | no binding | no binding | AtCFIS2 (protein, UniProt Q8GXS3 1-200) MAMSQVVNTYPLSNYSFGTKEPKLEKDTSVADRLARMKINYMKEGMRTSVEGILLVQEHNHPHILLLQIGNTFCKLPGGRLKPGENEADGLKRKLTSKLGGNSAALVPDWTVGECVATWWRPNFETMMYPYCPPHITKPKECKRLYIVHLSEKEYFAVPKNLKLLAVPLFELYDNVQRYGPVISTIPQQLSRFHFNMISS
